Among all 220,000 compounds or so, about 770 (0.35%) were called active. Inconclusive results, whose numbers are uncertain, are shown with a selection of clear calls. Cut-off read from the data, not from the text of the source: active = binding response below about 49% or above about 150%; inconclusive = no clear call, values can overlap the other calls; inactive = in between.
Biological target: Guanine nucleotide-binding protein G(o) subunit alpha (Homo sapiens) (UniProt P09471)
Assay: RGS7-Galphao binding modulators, primary screen, biochemical, multiplexed bead flow cytometry (AID 1439);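 note: fluorescent Galphao held in activated GDP-AlF4 state binding bead-coupled RGS7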
Conditions: at 10 µM, actives lie on both sides

By UniProt entry, the sequences of proteins in these tests, tags left out.
UniProt P09471, whole entry, looked up: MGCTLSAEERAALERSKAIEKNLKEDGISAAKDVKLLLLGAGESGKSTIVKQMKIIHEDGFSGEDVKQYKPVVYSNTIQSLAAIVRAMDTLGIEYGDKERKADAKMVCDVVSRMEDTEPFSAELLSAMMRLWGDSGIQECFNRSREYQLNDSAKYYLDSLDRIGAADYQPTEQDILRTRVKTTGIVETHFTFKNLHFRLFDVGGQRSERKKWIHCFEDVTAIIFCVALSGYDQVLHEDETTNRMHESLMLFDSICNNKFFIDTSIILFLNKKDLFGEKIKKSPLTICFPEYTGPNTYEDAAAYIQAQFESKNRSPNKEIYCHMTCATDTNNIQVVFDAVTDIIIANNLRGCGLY

Row | Compound | binding response (% of control)
1 | COc1cc(NC(=O)c2ccco2)c(C(=O)OCC(=O)c2c[nH]c3ccccc23)cc1OC | inactive: 115%
2 | O=C1OC2(CCCCC2)OC(=O)C1=CNc1nc2ccccc2s1 | inactive: 96.3%
3 | O=C(CN1CC[C@@]2(O)CCCC[C@H]2[C@@H]1c1ccc(F)cc1)NCc1ccco1 | inconclusive: 87.1%
4 | CCC(CC)C(=O)Nc1cccc(C(=O)Nc2nnc(C)s2)c1 | inconclusive: 101%
5 | CN(Cc1ccccc1)C(=O)COc1ccc(N(C)S(=O)(=O)c2ccc(F)cc2)cc1 | inconclusive: -319%
6 | Clc1ccc(N2CCN(/N=C/c3ccncc3)CC2)cc1 | inconclusive: 112%
7 | COCCNC(=O)/C(C#N)=C/c1ccc(C(=O)O)cc1 | inconclusive: 98.7%
8 | O=C(Nc1ccc(Cl)c([N+](=O)[O-])c1)Nc1nc2ccccc2s1 | inconclusive: 110%
9 | CN(C)c1ccc(/C=C/C#N)cc1 | inconclusive: 97.2%
10 | COC(=O)CC1C(=O)NCCN1C(=O)CSc1nc2ccc([N+](=O)[O-])cc2s1 (stereo not given) | inconclusive: 136%
11 | COc1cccc(C(=O)C2CCCN(Cc3ccc(OC)c(Cn4cncn4)c3)C2)c1 (stereo not given) | inconclusive: 183%
12 | CCOc1cc(C2/C(=C(/O)c3ccc(OC)cc3)C(=O)C(=O)N2CC2CCCO2)ccc1O (stereo not given) | inconclusive: 74.4%
13 | COc1ccccc1NC(=O)CCN1CCN(Cc2ccccc2)CC1 | inactive: 99.8%
14 | CSc1nc(-c2cccs2)c(C#N)c(=O)[nH]1 | inconclusive: 228%
15 | COC/C=C/C1=CC2=CC(=O)C(C)(OC(=O)C3CCCC3)C(=O)C2=CO1 (stereo not given) | inconclusive: 54.6%
16 | COc1ccc(CN2C=C3C(=O)C(C)(OC(=O)CCc4ccccc4)C(=O)C=C3C=C2c2ccc(C#N)cc2)cc1 (stereo not given) | inconclusive: 99.1%
17 | Fc1ccc(C(CCNCc2cccs2)c2ccco2)cc1 (stereo not given) | inconclusive: -593%
18 | COc1ccc(Cn2c(=O)cc(N)n(-c3ccccc3C)c2=O)cc1 | inconclusive: 133%
19 | Cc1ccc(S(=O)(=O)CCC(=O)OCC(=O)NC(N)=O)cc1 | inconclusive: -207%
20 | CC1CCc2nc(/C(C#N)=C/c3cccnc3)sc2C1 (stereo not given) | inconclusive: 82.3%
21 | NS(=O)(=O)c1cccc(NC(=O)COC(=O)Cc2ccc(Cl)cc2)c1 | inactive: 96.2%
22 | Fc1ccccc1C1CC(c2ccco2)=Nc2ccccc2S1 (stereo not given) | inconclusive: 100%
23 | C/C(=N/NC(=O)CCc1c(C)n[nH]c1C)c1cccc([N+](=O)[O-])c1 | inconclusive: 105%

Row | Compound | binding response (% of control)
24 | CN(C(=O)c1ccncc1)c1ccccc1 | inconclusive: 74.3%
25 | Cc1cc(NC(=O)OC(C)C)ccc1-c1ccc(NC(=O)OC(C)C)cc1C | inconclusive: 99.2%
26 | CCOC(=O)C1CSC2(CCC(c3ccccc3)CC2)N1 (stereo not given) | inconclusive: 101%
27 | CCOc1ccc2nc(N3CCC(C(=O)NCCCN4CCOCC4)CC3)sc2c1 | inconclusive: 129%
28 | Cc1ccccc1NC(=O)C(Cc1ccccc1)n1cccc1 (stereo not given) | inconclusive: 116%
29 | N#Cc1ccc(/C=C(\C(=O)C(=O)O)c2ccc3ccccc3n2)cc1 | inconclusive: 107%
30 | CCN1/C(=N\N)c2cccc3cccc1c23 | inconclusive: 82.4%
31 | CCOC(=O)N1CCN(C(=O)c2ccc(Cl)nc2)CC1 | inconclusive: 104%
32 | Cc1ccc(Nc2nc(N/N=C\c3ccc4c(c3)OCO4)nc(N3CCOCC3)n2)cc1 | inactive: 99.5%
33 | Nc1nc(COc2ccc(Cl)cc2)cs1 | inconclusive: 127%
34 | COc1cc(C(=O)NNC(=S)NC(=O)c2ccc(F)cc2)cc(OC)c1OC | inconclusive: 108%
35 | CC(=O)Nc1ccc(C(=O)OC2CCCCC2=O)cc1 (stereo not given) | inactive: 100%
36 | COc1cccc2c(=O)n(CC(=O)NCCc3ccccc3)ccc12 | inconclusive: 88.9%
37 | CCN1C=C(C(=O)OC)C(c2cccc(OC)c2OC)C(C(=O)OC)=C1 | inactive: 108%
38 | COc1ccc(N=C2SC(C(=O)Nc3ccc(C(=O)O)cc3)CC(=O)N2Cc2cccs2)cc1 (stereo not given) | inconclusive: 109%
39 | CCN1CCN(c2cc(C)c3cc(NC(=S)N(CC)CC)ccc3n2)CC1 | inconclusive: 97.6%
40 | Cc1c(NC(=O)C(C)OC(=O)/C=C/c2ccco2)c(=O)n(-c2ccccc2)n1C (stereo not given) | inconclusive: 83.5%
41 | O=C(O)/C=C/C(=O)NCCC(c1ccccc1)c1ccccc1 | inconclusive: 95.2%
42 | COc1ccc(C2CC(=O)Oc3c(C(CCN4CCN(c5ccccc5)CC4)c4ccc(N(C)C)cc4)c(OC)cc(OC)c32)cc1 (stereo not given) | inconclusive: 105%
43 | COc1ccc(CN2C(=O)Cc3c2nc(N)c2c(N)nc(N4CCOCC4)c(C#N)c32)cc1 | inconclusive: 80.6%
44 | Cc1[nH]c2ccccc2c1C(c1ccncc1)N1CCN(c2ccccc2F)CC1 (stereo not given) | active: 160% [activator]
45 | O=C(/C=C\Nc1ccc(Br)cc1)c1cccnc1 | inactive: 98.9%

Fetched by structure from the entries so far:
Row | Compound | binding response (% of control)
31 | CCOC(=O)N1CCN(C(=O)c2ccc(Cl)nc2)CC1 | inconclusive: 104%
43 | COc1ccc(CN2C(=O)Cc3c2nc(N)c2c(N)nc(N4CCOCC4)c(C#N)c32)cc1 | inconclusive: 80.6%

From PubChem BioAssay AID1439 (NMMLSC, 2008)
